The results in this text go back to the supplement of paper PMC10849652.

Protein sequences, listed by entry. Tags and fused reporters are not part of them. Lines headed by an entry give the natural chain unless they say otherwise; changes in a name come on top.
UniProt P54727: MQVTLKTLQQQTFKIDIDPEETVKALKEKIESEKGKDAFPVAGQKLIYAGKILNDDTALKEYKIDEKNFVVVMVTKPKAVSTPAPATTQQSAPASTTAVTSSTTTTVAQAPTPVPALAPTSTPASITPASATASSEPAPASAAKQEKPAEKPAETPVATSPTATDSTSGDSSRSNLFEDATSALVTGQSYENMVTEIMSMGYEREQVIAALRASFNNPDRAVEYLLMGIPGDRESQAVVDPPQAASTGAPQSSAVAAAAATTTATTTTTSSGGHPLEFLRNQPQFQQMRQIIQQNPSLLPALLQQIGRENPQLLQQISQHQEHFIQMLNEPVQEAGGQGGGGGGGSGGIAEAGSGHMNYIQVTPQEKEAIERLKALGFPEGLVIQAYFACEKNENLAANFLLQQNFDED
UniProt P10114: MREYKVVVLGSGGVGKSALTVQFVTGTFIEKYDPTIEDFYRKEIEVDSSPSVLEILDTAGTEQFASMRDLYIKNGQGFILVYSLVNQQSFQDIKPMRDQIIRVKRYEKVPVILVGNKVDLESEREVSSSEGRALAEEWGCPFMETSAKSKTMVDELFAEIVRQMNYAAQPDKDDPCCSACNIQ
UniProt P62491: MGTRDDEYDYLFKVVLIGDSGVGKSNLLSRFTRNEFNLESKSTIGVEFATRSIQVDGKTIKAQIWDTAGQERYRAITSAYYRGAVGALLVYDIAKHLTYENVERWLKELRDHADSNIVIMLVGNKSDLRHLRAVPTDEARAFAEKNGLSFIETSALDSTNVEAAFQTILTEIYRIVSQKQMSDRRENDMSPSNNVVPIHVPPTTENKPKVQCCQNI
UniProt Q9H0R6: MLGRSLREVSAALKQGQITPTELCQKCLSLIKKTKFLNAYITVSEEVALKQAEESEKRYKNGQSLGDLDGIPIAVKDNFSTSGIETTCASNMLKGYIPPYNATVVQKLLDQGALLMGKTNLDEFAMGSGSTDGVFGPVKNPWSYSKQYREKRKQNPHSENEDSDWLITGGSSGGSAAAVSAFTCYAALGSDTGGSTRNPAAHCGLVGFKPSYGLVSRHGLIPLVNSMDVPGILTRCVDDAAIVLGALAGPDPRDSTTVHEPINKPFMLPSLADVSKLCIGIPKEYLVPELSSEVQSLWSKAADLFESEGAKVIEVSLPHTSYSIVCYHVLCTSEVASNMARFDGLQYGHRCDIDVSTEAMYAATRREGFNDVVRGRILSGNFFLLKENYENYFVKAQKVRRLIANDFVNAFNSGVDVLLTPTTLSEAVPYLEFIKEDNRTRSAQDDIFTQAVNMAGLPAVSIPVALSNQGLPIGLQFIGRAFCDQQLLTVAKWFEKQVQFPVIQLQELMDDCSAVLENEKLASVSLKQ
UniProt P62834: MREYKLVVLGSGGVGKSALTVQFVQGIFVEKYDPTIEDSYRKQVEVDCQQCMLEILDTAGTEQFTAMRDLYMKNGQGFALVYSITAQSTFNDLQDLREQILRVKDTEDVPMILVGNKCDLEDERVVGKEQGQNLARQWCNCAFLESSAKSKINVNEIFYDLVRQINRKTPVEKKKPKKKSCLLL
UniProt Q9H2T7: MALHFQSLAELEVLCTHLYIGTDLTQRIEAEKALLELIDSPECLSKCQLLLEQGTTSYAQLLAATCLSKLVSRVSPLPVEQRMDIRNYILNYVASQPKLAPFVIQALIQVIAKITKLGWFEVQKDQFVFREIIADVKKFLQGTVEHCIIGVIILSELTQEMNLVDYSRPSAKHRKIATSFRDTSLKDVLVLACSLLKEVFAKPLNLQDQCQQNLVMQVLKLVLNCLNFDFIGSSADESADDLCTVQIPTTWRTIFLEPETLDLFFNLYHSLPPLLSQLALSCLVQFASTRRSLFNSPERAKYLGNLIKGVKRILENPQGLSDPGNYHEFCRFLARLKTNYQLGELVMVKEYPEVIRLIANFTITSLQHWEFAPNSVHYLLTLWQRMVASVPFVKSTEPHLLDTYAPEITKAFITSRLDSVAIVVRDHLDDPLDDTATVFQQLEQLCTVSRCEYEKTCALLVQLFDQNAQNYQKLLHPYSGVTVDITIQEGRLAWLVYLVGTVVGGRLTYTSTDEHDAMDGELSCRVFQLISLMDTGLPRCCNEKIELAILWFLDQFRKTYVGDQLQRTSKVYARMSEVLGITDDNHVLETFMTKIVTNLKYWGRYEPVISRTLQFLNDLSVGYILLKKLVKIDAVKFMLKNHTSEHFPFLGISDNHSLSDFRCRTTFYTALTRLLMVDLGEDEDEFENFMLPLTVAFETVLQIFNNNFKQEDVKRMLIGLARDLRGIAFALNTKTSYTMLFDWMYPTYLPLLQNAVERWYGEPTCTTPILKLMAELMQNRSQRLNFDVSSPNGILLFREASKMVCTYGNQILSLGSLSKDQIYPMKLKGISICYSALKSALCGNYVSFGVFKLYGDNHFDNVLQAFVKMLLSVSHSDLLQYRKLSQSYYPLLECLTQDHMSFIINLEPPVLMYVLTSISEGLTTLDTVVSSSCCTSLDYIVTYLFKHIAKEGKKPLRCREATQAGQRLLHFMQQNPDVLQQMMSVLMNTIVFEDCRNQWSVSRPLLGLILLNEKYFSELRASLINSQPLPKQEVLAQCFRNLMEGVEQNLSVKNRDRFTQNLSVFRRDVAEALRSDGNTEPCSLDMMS
UniProt Q7Z6M1: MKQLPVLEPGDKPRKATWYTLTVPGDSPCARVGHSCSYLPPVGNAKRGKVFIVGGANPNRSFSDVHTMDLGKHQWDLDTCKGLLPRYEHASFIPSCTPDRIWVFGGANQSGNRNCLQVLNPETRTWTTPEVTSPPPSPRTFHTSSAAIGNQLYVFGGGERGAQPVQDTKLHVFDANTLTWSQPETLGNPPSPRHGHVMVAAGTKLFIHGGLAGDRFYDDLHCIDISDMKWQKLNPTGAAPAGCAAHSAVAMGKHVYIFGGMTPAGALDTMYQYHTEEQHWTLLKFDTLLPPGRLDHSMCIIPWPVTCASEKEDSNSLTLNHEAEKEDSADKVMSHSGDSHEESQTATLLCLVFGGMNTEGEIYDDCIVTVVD
UniProt O43502: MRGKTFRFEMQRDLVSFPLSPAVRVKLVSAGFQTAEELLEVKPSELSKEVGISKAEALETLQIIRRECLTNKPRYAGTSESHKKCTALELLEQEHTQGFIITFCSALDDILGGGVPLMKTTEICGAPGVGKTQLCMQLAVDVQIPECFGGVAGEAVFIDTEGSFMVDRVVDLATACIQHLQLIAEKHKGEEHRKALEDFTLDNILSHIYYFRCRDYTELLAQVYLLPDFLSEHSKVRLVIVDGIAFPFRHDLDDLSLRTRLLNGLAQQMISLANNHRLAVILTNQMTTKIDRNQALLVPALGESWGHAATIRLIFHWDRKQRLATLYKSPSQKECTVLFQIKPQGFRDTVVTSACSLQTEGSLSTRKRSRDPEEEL
UniProt Q9UJ41, whole entry, looked up: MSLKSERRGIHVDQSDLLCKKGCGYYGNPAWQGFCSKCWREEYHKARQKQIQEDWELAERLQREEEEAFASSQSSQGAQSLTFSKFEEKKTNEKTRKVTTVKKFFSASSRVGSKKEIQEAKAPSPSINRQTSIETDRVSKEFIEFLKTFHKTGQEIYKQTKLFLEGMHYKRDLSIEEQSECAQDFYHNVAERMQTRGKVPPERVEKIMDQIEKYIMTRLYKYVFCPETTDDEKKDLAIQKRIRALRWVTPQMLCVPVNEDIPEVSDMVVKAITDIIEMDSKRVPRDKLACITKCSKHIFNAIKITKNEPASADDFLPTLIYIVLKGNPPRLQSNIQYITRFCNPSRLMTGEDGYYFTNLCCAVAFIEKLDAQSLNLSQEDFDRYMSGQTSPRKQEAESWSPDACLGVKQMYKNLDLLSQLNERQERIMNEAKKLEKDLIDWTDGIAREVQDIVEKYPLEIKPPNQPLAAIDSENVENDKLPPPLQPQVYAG
UniProt Q15276: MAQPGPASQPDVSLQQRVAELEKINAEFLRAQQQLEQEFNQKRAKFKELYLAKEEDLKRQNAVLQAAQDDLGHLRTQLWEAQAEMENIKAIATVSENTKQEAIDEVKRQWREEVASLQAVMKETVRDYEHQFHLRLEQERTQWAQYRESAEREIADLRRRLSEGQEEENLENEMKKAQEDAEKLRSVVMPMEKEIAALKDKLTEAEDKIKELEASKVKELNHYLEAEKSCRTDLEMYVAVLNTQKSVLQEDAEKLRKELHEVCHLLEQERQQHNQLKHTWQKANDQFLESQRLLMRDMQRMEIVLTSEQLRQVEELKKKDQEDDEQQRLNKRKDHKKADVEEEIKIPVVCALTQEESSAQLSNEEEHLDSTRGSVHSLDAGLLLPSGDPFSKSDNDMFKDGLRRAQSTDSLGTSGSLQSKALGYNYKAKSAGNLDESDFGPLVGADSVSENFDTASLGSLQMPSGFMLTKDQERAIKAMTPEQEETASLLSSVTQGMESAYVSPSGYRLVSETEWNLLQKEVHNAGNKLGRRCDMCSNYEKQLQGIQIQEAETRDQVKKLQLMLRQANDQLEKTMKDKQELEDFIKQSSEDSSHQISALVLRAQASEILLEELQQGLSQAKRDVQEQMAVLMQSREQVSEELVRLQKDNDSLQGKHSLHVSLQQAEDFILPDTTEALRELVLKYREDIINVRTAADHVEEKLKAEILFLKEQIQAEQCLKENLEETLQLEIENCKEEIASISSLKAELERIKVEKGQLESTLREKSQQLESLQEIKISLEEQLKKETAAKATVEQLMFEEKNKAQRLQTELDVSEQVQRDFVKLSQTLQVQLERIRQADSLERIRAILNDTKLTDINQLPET
UniProt Q9UI14, whole entry, looked up: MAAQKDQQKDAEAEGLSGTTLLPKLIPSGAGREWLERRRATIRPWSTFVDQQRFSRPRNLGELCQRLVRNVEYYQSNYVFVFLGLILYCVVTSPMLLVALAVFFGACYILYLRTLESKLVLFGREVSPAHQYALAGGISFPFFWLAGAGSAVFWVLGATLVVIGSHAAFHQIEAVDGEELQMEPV
UniProt Q9NRW1: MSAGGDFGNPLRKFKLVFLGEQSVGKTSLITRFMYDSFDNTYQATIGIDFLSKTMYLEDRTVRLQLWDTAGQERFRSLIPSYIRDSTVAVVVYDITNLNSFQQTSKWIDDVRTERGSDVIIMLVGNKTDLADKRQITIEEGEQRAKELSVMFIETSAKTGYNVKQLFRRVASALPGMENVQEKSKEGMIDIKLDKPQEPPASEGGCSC
UniProt Q969Q5: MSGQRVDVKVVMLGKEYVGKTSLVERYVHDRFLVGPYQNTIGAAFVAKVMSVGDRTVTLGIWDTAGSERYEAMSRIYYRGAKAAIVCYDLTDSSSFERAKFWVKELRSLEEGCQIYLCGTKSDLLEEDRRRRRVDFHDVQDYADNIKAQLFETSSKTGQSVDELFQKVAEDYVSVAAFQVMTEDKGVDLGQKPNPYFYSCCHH
UniProt Q53H96: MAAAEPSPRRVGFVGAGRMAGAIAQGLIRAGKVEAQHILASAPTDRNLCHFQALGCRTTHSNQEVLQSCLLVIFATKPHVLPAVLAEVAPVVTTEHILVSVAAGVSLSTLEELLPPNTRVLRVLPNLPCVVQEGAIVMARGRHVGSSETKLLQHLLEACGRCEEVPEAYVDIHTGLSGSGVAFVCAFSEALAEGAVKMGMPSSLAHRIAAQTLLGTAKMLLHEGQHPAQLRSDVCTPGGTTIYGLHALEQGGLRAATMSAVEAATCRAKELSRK
UniProt P61225: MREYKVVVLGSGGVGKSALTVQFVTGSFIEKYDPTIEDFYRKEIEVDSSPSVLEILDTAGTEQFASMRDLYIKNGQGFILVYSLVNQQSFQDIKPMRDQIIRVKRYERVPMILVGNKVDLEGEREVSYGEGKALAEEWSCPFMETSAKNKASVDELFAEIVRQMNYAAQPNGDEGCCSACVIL
UniProt Q92930: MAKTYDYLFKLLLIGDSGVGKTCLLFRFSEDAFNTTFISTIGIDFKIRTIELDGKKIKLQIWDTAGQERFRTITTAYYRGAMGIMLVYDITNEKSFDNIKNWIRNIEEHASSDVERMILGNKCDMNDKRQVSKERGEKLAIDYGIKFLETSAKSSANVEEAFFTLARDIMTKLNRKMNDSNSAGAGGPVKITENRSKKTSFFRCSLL
UniProt P20340: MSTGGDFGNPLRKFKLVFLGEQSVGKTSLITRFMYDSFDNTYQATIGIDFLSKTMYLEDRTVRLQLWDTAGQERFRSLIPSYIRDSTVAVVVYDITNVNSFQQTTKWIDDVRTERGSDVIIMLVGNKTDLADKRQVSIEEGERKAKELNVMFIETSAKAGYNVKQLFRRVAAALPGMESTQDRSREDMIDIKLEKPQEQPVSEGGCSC
UniProt Q9NX57: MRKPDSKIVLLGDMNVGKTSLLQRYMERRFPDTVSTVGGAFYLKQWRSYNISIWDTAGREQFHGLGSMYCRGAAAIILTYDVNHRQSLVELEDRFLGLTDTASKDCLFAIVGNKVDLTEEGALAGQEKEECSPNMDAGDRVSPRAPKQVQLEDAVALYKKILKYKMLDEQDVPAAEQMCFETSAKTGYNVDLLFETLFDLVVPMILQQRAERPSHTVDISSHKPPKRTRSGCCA
UniProt Q9Y3L5: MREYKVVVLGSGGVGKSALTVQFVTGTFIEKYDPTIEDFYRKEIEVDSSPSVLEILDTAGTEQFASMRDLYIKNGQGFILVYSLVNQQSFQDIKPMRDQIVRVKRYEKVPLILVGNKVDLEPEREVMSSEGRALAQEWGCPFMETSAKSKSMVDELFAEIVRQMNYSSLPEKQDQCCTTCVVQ

The other results are listed elsewhere or left out.

Compound in the first experiment: CC(C)C1=C2N=C(C=C(N2N=C1)NCC3=CC=CC=C3)NCCCCCCN
Put plainly: log2 fold change, soluble protein after heating vs DMSO (PISA); higher = thermal stabilisation; K562 lysate, 10 uM; active = over 0.2 and 3.5 SD of the protein, either way, in both replicates (recomputed). In short, it runs like this:
(§1)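 To prepare the extract, K562 pellets were dounce-homogenised in PBS pH 7.4 with 1 mM MgCl2, giving crude material at 1 mg/mL protein. This was treated with 10 μM compound for 30 min, then heated in aliquots for 3 min over 48°C-58°C before pooling and addition of NP-40 to 0.5% at 4°C. Centrifugation at 21,000xg for 90 min left soluble protein in the supernatant, which TMTpro 16plex LC-MS/MS quantified with equalised channel sums. Results are log-two fold changes in thermal stability compared with solvent controls, from duplicates.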
Consider RAP1GAP isoform 4 (UniProt P47736), for which the log2 fold change was inactive: 0.051.

Turning to RAD51 (UniProt Q06609), the log2 fold change was inactive: 0.069.

As for RAD23B (UniProt P54727), the log2 fold change is inactive: -0.016.

RAP2A (UniProt P10114): the log2 fold change was inactive: 0.005.

On to RAB11A (UniProt P62491), for which the log2 fold change was inactive: -0.042.

With QRSL1 (UniProt Q9H0R6), the log2 fold change is inactive: 0.066.

As to RAP1A (UniProt P62834), the log2 fold change is inactive: -0.011.

For RAP1B (UniProt P61224), the log2 fold change is inactive: -0.014.

Take RAPGEF2, A0A2R8YGD3: the log2 fold change was inactive: 0.008.

On to RANBP17 (UniProt Q9H2T7), for which the log2 fold change is inactive: -0.035.

Compound in another experiment: CC1=C(C(CC(=O)N1)C2=CC=C(C=C2)C(F)(F)F)C(=O)NC3=C(C=C4C(=C3)C=NN4)F
Described as above. In short, it runs like this: as §1
RACGAP1 (UniProt Q9H0H5): the log2 fold change is inactive: 0.064.

As for RAD1 (UniProt O60671), the log2 fold change was inactive: 0.052.

In the case of RAC2 (UniProt P15153), the log2 fold change was inactive: -0.005.

Turning to RABEPK (UniProt Q7Z6M1), the log2 fold change was inactive: -0.009.

Regarding RANBP9 (UniProt Q96S59), the log2 fold change was inactive: 0.021.

Take RAD51C (UniProt O43502): the log2 fold change is inactive: -0.015.

With RABGEF1 isoform 3 (UniProt Q9UJ41), the log2 fold change was inactive: -0.016.

On to RANBP6 (UniProt O60518), for which the log2 fold change is inactive: -0.005.

On to RABEP1 (UniProt Q15276), for which the log2 fold change is inactive: 0.009.

Consider RALGAPA1 isoform 6 (UniProt Q6GYQ0), for which the log2 fold change was inactive: -0.039.

RABAC1 (UniProt Q9UI14): the log2 fold change was inactive: 0.028.

Turning to RAB5B (UniProt P61020), the log2 fold change is inactive: 0.04.

For the target RAB6B (UniProt Q9NRW1), the log2 fold change was inactive: 0.031.

On to RAB5A (UniProt P20339), for which the log2 fold change is inactive: 0.016.

Consider RAB24 (UniProt Q969Q5), for which the log2 fold change is inactive: 0.028.

Turning to PYCR3 (UniProt Q53H96), the log2 fold change is inactive: -0.016.

RAB10 (UniProt P61026): the log2 fold change is inactive: 0.038.

Consider RAN (UniProt P62826), for which the log2 fold change is inactive: -0.042.

In the case of RAP2B (UniProt P61225), the log2 fold change is inactive: 0.03.

Consider RAB8B (UniProt Q92930), for which the log2 fold change is inactive: 0.051.

Turning to RAB6A isoform 4 (UniProt P20340), the log2 fold change is inactive: 0.026.

For RAB20 (UniProt Q9NX57), the log2 fold change was inactive: 0.108.

As for RAP2C (UniProt Q9Y3L5), the log2 fold change is inactive: 0.014.

As to RAP1GAP isoform 4 (UniProt P47736), the log2 fold change is inactive: 0.003.

With RAD51 (UniProt Q06609), the log2 fold change is inactive: -0.089.

Consider RAD23B (UniProt P54727), for which the log2 fold change is inactive: -0.029.

Consider RAP2A (UniProt P10114), for which the log2 fold change is inactive: -0.031.

With RAB11A (UniProt P62491), the log2 fold change is inactive: 0.032.

On to QRSL1 (UniProt Q9H0R6), for which the log2 fold change is inactive: -0.003.

As to RAP1A (UniProt P62834), the log2 fold change is inactive: 0.019.

Turning to RAP1B (UniProt P61224), the log2 fold change was inactive: -0.01.

For the target RAPGEF2, A0A2R8YGD3, the log2 fold change was inactive: 0.054.

For RANBP17 (UniProt Q9H2T7), the log2 fold change is inactive: -0.049.
